Data: the supplement of paper PMC10849652
The list shows a part of the results.

The chains behind the UniProt entries cited, without tags or fusion partners. Where a name states a change or a piece, a line headed by the entry shows the natural chain unless it says otherwise.
UniProt Q68CR1: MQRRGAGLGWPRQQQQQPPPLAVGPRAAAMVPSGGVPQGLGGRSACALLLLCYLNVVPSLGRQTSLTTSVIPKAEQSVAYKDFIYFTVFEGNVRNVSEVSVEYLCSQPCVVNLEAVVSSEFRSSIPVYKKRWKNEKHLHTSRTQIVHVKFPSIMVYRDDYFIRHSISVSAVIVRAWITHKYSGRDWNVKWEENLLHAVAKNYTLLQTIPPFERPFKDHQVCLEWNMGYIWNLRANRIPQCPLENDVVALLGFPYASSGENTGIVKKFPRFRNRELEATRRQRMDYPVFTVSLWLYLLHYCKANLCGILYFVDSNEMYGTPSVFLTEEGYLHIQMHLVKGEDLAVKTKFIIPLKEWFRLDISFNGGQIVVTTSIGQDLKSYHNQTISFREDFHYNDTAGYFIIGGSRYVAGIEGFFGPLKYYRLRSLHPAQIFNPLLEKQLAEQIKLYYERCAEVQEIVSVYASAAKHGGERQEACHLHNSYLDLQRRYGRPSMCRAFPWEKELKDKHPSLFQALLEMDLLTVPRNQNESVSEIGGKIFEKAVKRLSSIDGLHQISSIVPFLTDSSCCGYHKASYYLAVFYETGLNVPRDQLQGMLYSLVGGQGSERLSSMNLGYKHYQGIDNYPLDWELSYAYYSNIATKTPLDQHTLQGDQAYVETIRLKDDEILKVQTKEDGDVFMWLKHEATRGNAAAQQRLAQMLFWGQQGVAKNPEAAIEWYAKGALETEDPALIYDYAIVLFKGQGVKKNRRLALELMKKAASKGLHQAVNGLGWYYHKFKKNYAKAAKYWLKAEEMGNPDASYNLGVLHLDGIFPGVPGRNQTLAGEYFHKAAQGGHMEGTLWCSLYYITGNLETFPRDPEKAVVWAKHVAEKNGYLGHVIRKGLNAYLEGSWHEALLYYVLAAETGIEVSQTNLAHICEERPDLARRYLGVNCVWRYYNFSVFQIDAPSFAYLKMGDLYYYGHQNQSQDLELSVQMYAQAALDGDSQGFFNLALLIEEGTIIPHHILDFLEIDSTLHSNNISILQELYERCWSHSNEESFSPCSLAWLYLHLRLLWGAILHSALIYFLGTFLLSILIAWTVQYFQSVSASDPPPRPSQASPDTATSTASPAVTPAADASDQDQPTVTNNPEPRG
UniProt Q6SPF0: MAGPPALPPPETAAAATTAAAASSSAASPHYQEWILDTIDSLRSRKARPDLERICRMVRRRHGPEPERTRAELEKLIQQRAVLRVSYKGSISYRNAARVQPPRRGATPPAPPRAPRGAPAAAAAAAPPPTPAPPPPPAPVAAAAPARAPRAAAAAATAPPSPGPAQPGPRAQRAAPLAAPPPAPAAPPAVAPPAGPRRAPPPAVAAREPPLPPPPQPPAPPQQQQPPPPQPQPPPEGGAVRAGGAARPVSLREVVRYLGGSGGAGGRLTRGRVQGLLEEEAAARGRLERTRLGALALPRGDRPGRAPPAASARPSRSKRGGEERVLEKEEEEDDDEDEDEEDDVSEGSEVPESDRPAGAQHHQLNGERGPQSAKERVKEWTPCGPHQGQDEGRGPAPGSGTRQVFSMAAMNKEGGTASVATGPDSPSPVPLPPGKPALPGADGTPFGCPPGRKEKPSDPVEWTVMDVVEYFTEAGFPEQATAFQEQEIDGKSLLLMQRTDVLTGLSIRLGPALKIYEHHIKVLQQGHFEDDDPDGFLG
UniProt Q9UPW6: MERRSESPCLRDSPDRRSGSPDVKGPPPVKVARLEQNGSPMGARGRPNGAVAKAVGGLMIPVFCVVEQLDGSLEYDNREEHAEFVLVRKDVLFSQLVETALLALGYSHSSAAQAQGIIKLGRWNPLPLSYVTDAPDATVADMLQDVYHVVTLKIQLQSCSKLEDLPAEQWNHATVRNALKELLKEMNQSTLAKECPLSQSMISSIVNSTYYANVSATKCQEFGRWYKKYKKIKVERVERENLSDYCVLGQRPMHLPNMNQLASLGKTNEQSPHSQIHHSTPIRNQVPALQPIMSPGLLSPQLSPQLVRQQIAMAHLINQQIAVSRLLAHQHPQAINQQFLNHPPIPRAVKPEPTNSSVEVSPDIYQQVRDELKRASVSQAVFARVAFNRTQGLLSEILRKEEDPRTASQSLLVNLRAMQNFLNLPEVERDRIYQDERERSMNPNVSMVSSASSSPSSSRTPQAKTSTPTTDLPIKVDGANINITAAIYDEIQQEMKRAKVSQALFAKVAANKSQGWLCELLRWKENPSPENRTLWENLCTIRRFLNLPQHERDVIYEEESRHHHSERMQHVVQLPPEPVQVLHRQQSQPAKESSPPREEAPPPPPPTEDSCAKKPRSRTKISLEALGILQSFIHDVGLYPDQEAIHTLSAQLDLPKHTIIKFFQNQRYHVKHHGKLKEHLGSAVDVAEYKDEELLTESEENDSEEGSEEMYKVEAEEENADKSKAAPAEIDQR
UniProt Q9BVL4, whole entry, looked up: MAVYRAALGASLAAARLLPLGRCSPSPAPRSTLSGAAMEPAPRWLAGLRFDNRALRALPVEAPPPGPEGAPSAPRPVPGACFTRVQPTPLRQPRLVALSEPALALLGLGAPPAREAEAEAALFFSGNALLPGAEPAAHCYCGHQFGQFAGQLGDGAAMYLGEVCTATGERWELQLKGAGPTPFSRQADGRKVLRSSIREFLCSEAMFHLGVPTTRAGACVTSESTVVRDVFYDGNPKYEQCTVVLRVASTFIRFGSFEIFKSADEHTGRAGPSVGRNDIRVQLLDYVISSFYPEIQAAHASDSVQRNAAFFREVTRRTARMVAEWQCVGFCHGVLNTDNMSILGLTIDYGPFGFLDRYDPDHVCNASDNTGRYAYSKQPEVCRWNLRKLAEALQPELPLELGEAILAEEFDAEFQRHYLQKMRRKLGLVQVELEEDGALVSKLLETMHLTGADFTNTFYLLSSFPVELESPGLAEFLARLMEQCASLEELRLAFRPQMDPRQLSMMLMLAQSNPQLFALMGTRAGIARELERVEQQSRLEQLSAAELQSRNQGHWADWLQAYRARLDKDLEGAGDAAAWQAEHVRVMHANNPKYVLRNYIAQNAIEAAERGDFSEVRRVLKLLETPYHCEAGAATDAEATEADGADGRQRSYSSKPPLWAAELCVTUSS
UniProt P63302, whole entry, looked up: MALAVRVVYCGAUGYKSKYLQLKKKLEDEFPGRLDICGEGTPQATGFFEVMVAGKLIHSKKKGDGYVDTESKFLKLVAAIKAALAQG
UniProt Q9BWG6: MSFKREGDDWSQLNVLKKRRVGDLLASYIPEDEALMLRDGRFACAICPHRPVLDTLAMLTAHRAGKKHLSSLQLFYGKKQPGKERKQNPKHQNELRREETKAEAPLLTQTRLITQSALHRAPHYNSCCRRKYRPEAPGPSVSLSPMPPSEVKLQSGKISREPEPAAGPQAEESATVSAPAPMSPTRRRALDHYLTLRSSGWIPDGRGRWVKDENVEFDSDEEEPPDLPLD
UniProt Q8N9R8: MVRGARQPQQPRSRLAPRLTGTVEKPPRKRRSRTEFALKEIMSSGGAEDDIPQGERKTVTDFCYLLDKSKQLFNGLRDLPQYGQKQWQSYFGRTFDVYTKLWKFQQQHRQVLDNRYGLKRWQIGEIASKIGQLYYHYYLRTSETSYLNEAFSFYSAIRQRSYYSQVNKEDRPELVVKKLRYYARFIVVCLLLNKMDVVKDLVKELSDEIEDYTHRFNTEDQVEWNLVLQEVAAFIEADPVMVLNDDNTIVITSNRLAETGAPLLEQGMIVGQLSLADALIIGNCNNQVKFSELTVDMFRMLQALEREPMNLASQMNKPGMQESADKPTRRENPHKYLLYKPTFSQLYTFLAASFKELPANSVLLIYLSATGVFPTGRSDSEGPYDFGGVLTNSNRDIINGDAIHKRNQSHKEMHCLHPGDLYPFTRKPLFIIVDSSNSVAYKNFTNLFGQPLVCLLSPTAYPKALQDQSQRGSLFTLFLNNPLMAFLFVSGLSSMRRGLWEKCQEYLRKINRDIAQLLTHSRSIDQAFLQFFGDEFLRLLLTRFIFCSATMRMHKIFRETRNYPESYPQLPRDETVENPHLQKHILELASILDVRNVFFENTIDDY
UniProt Q9H0E3: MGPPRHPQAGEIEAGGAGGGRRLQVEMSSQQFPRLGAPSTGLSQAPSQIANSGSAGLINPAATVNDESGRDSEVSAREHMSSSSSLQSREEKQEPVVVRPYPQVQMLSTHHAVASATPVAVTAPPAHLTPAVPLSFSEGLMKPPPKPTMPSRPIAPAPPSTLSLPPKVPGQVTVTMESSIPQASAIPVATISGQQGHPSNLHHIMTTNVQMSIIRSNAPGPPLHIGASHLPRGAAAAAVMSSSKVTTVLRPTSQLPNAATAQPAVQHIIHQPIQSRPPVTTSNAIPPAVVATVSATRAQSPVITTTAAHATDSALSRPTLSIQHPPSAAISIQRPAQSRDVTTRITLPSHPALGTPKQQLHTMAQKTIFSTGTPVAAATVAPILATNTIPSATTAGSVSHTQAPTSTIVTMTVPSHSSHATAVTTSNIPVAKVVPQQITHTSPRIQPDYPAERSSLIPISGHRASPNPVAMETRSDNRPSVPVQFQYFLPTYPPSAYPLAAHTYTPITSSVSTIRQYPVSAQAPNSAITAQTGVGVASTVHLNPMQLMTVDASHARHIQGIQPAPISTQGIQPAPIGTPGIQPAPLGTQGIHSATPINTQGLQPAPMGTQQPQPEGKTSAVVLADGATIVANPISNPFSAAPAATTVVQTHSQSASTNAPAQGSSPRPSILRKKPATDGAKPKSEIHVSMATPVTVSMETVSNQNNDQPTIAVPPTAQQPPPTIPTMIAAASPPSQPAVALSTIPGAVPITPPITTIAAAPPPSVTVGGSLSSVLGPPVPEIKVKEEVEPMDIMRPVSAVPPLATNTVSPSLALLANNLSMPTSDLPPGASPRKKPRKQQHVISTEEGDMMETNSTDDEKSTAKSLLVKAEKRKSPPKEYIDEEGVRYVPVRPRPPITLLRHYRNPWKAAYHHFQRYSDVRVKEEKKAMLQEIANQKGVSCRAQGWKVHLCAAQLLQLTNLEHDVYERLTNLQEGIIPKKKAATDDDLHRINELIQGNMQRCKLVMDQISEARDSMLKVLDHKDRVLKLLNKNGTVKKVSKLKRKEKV
UniProt Q9Y2G9: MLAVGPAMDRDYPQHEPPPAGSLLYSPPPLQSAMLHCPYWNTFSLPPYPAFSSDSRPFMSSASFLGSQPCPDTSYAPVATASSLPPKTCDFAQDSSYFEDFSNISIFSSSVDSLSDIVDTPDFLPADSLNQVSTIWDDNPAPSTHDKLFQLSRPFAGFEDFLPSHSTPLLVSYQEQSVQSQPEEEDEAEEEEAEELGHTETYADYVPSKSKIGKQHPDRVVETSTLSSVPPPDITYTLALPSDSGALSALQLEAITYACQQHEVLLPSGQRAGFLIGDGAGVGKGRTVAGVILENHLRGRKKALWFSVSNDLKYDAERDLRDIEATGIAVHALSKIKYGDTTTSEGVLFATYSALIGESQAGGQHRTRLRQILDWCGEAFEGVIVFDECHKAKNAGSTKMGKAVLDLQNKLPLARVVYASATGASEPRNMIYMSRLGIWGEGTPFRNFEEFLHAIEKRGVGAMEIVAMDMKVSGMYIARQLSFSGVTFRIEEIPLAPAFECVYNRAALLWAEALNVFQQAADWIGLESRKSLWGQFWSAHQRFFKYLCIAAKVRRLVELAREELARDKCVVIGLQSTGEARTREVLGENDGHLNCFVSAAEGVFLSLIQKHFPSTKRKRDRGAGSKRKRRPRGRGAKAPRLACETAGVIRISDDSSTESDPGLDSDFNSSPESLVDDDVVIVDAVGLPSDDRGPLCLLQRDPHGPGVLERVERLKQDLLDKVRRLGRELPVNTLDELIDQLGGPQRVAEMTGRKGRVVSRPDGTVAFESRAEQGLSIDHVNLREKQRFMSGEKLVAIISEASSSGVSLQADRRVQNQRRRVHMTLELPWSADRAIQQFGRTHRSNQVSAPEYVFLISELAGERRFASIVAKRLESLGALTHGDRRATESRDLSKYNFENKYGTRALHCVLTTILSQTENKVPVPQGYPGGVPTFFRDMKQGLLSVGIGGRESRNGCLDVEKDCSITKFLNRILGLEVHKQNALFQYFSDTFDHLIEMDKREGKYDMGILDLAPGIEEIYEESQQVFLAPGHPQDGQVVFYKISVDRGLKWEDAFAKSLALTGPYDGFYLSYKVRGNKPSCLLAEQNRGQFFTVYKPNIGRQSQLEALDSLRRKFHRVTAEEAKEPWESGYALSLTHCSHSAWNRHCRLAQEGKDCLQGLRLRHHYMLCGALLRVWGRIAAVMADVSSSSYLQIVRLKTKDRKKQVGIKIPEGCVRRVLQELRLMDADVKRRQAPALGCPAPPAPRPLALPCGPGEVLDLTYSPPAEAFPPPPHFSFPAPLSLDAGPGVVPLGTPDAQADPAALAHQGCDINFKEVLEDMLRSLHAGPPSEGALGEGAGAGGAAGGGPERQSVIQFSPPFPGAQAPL
UniProt Q9HAJ7: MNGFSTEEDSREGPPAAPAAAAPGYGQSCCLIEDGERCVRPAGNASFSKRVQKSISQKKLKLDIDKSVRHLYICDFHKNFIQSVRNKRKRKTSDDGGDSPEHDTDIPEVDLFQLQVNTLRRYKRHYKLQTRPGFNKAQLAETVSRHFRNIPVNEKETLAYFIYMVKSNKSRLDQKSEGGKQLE

Key:
Experiment in all cases: log2 fold change, soluble protein after heating vs DMSO (PISA); higher = thermal stabilisation; K562 lysate, 10 uM; active = over 0.2 and 3.5 SD of the protein, either way, in both replicates (recomputed)
[1] = compound: CS(=O)(=O)CCNCc1ccc(-c2ccc3ncnc(Nc4ccc(OCc5cccc(F)c5)c(Cl)c4)c3c2)o1 [lapatinib]
Procedure, shortened: (§1)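 Dounce homogenisation of K562 pellets in PBS pH 7.4 with 1 mM MgCl2 produced a crude extract, used at 1 mg/mL protein. Exposure to 10 μM compound lasted 30 min, and aliquots were then heated for 3 min across 48°C-58°C, pooled and brought to 0.5% NP-40 at 4°C. The supernatant after 21,000xg for 90 min was quantified by TMTpro 16plex LC-MS/MS with channel sums equalised. Duplicate values are given as log-two fold change in thermal stability relative to solvent controls.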

[2] = compound: C[C@@H](Oc1cc(-c2cnn(C3CCNCC3)c2)cnc1N)c1c(Cl)ccc(F)c1Cl [crizotinib]
Procedure, shortened: as §1

[3] = compound: C[C@H](C1=CC=C(C=C1)C(=O)NC2=C3C=CNC3=NC=C2)N
Procedure, shortened: as §1

[4] = compound: C[C@H](Nc1ncnc2nc[nH]c12)c1cc2cccc(Cl)c2c(=O)n1-c1ccccc1 [duvelisib]
Procedure, shortened: as §1

[5] = compound: Cc1cc(Nc2cc(CN3CCOCC3)c3nc(C)c(Cc4ccc(Cl)cc4F)n3n2)n[nH]1 [gandotinib]
Procedure, shortened: as §1

[6] = compound: Cc1cc(Nc2cc(N3CCN(C)CC3)nc(Sc3ccc(NC(=O)C4CC4)cc3)n2)n[nH]1 [tozasertib]
Procedure, shortened: as §1

[7] = compound: Cc1ccc(-n2nc(C(C)(C)C)cc2NC(=O)Nc2ccc(OCCN3CCOCC3)c3ccccc23)cc1 [doramapimod]
Procedure, shortened: as §1

[8] = compound: Cc1cccc(CC(=O)N2CCc3c2ccc(-c2cn(C)c4ncnc(N)c24)c3F)n1
Procedure, shortened: as §1

[9] = compound: CS(=O)(=O)N1CCN(Cc2cc3nc(-c4cccc5[nH]ncc45)nc(N4CCOCC4)c3s2)CC1 [pictilisib]
Procedure, shortened: as §1

[10] = compound: Cc1ccc(NC(=O)c2ccc(CN3CC[C@H](N(C)C)C3)c(C(F)(F)F)c2)cc1Nc1nccc(-c2cncnc2)n1 [bafetinib]
Procedure, shortened: as §1

Measured: log2 fold change

SENP3 (UniProt Q9H4L4)
inactive: [1] -0.093 | [2] -0.03 | [3] 0.016 | [4] 0.03 | [5] 0.15 | [6] 0.199 | [7] -0.062 | [8] 0.188

SEL1L3 (UniProt Q68CR1)
inactive: [9] -0.036 | [2] -0.085 | [3] 0.092 | [4] 0.039 | [5] -0.04 | [6] 0.066 | [7] -0.066 | [10] -0.07 | [8] 0.025

SAMD1 (UniProt Q6SPF0)
inactive: [1] 0.004 | [2] -0.078 | [3] -0.362 | [4] 0.149 | [5] 0.178 | [6] 0.134 | [7] 0.092 | [8] 0.08

SATB2 (UniProt Q9UPW6)
inactive: [1] -0.009 | [2] 0.009 | [3] 0.042 | [4] 0.03 | [5] -0.039 | [6] -0.008 | [7] 0.002 | [8] -0.008

SEMA4G isoform 2 (UniProt Q9NTN9)
inactive: [2] -0.084 | [3] 0.036 | [4] -0.294 | [5] 0.019 | [6] 0.082 | [7] -0.053 | [8] -0.024

SEC31A (UniProt H0YAB3)
inactive: [1] -0.021 | [9] -0.016 | [3] -0.053 | [4] 0.043 | [5] 0.022 | [10] 0.018 | [8] 0.057

SCYL3 isoform 2 (UniProt Q8IZE3)
inactive: [9] 0.017 | [2] -0.128 | [3] -0.034 | [4] 0.056 | [5] -0.065 | [6] 0.002 | [7] 0.019 | [10] -0.034 | [8] 0.162

SEPTIN8 (UniProt F8W8I8)
inactive: [1] -0.016 | [3] -0.257 | [4] -0.035 | [5] 0.215 | [8] 0.091

SDHB, A0A087WXX8
inactive: [3] -0.1 | [5] 0.088 | [8] 0.251

SDHB, A0A087WWT1
inactive: [1] -0.019 | [2] -0.405 | [3] -0.181 | [4] -0.023 | [5] -0.124 | [6] 0.148 | [7] 0.502 | [8] 0.48

SC5D (UniProt O75845)
inactive: [1] -0.02 | [2] 0.009 | [3] -0.019 | [5] 0.018 | [6] -0.002 | [7] -0.033 | [8] 0.045

SELENOO (UniProt Q9BVL4)
inactive: [1] -0.004 | [3] -0.023 | [4] -0.139 | [5] -0.028 | [8] -0.105

SDC3 (UniProt O75056)
inactive: [2] 0.003 | [4] -0.157 | [7] 0.045

Pulled one by one from the list above, 3 records:
SATB2 (UniProt Q9UPW6)
inactive: [1] -0.009 | [2] 0.009 | [3] 0.042 | [4] 0.03 | [5] -0.039 | [6] -0.008 | [7] 0.002 | [8] -0.008

SDHB, A0A087WXX8
inactive: [3] -0.1 | [5] 0.088 | [8] 0.251

SCYL3 isoform 2 (UniProt Q8IZE3)
inactive: [9] 0.017 | [2] -0.128 | [3] -0.034 | [4] 0.056 | [5] -0.065 | [6] 0.002 | [7] 0.019 | [10] -0.034 | [8] 0.162

Next part

SAC3D1 (UniProt A6NKF1)
inactive: [9] -0.072 | [2] 0.074 | [3] 0.036 | [5] -0.178 | [7] -0.006 | [10] -0.031 | [8] -0.187

SBSN (UniProt Q6UWP8)
inactive: [3] 0.312 | [5] -0.197 | [8] 0.132

SCOC (UniProt Q9UIL1)
inactive: [2] 0.02 | [4] 0.118 | [7] -0.017

SDCCAG8 (UniProt S4R323)
inactive: [2] -0.017 | [7] 0.112

SAGE1 (UniProt Q9NXZ1)
inactive: [2] 0.053 | [3] 0.003 | [4] 0.128 | [5] 0.017 | [6] -0.024 | [7] 0.08 | [8] 0.017

SELENOM (UniProt Q8WWX9)
inactive: [1] 0.081 | [2] 0.079 | [7] -0.032

SENP7 (UniProt Q9BQF6)
inactive: [2] 0.143 | [3] -0.211 | [4] 0.108 | [5] -0.024 | [6] 0.036 | [7] 0.076 | [8] 0.139

SELENOW (UniProt P63302)
inactive: [1] -0.038 | [2] 0.027 | [3] 0.056 | [5] 0.148 | [7] -0.06 | [8] -0.05

SDR39U1 (UniProt Q9NRG7)
inactive: [1] 0.249 | [9] -0.298 | [3] 0.036 | [5] 0.549 | [10] 0.217 | [8] 0.024

SAFB2 (UniProt K7EQU4)
inactive: [9] -0.025 | [2] -0.055 | [4] -0.055 | [7] -0.017 | [10] 0.039

SCNM1 (UniProt Q9BWG6)
inactive: [1] 0.006 | [2] 0.057 | [3] 0.022 | [4] 0.057 | [5] 0.015 | [6] -0.039 | [7] -0.017 | [8] -0.157

SDCBP isoform 2 (UniProt O00560)
inactive: [9] -0.006 | [2] -0.062 | [3] -0.074 | [4] -0.019 | [5] 0.066 | [7] 0.038 | [10] -0.057 | [8] 0.328

SCG3 (UniProt Q8WXD2)
inactive: [2] 0.014 | [3] -0.048 | [4] 0.147 | [5] 0.003 | [6] 0.04 | [7] -0.072 | [8] 0.059

SCGB2A1 (UniProt O75556)
inactive: [1] -0.02 | [3] 0.333 | [5] 0.022 | [8] 0.606

SCAI isoform 2 (UniProt Q8N9R8)
inactive: [9] 0 | [3] 0.231 | [5] -0.089 | [6] 0.13 | [10] -0.107 | [8] 0.097

SAP130 isoform 3 (UniProt Q9H0E3)
inactive: [1] 0.045 | [2] -0.03 | [3] 0.034 | [4] 0.057 | [5] 0.131 | [6] -0.087 | [7] 0.057 | [8] -0.032

SEC16A isoform 3 (UniProt O15027)
inactive: [4] 0.024

SALL1 (UniProt Q9NSC2)
inactive: [3] 0.591 | [5] -0.223 | [6] -0.016 | [8] -0.417

SBNO2 (UniProt Q9Y2G9)
inactive: [3] 0.229 | [5] -0.034 | [8] -0.261

SCARB2 isoform 2 (UniProt Q14108)
inactive: [1] 0 | [9] -0.11 | [3] -0.244 | [4] -0.172 | [5] 0.049 | [10] -0.018 | [8] -0.073

SAP30L (UniProt Q9HAJ7)
inactive: [2] -0.029 | [7] -0.047

SAE1 (UniProt M0R286)
inactive: [1] -0.102 | [4] 0.032 | [6] 0.148

SDHD (UniProt O14521)
inactive: [1] -0.137 | [2] -0.146 | [3] -0.068 | [4] -0.074 | [5] 0.25 | [6] -0.055 | [7] 0.017 | [8] 0.051

SELENON (UniProt Q9NZV5)
inactive: [4] 0.039

SCAND1 (UniProt P57086)
inactive: [2] 0.111 | [7] 0.173

SAMD9 (UniProt Q5K651)
inactive: [1] 0.05 | [2] 0.064 | [3] -0.095 | [5] -0.047 | [6] 0.022 | [7] 0.153 | [8] 0.007

SARM1 (UniProt Q6SZW1)
inactive: [1] -0.119 | [3] 0.085 | [5] 0.025 | [8] -0.03
